In the supplement of paper PMC5949888 one finds growth estimate data, which are given here for 115 substances.

± gives the standard deviation of the averaged measurements. Most values lie at the floor of the assay. Slopes are relative: functional sequences can read slightly below zero.

For the series, the system named is Saccharomyces cerevisiae PS128 hsf1 delta, HSF1(1-493) fusion. Nature of the series: growth estimate (transactivation domain function in HSF1 fusion, heat-shock survival) (a.u. (slope of normalised read count over time)); higher = stronger growth at 37°C, i.e. more transactivation activity. As to conditions: library: random library.
RTSVGLSCLDAVHSLLLVVG: the growth estimate is below -0.25.

Regarding RSVGSSPT, the growth estimate was below -0.25. As to AESNWLRKSPLVRRMGGISP, the growth estimate is below -0.25.

As to RGRCSLSRSQ, the growth estimate was below -0.25. Regarding RAGVVQWVVQSASEGRRFHW, the growth estimate was below -0.25. Then LHSHTSSTSLEL, with below -0.25. Then SSRPASRSDYDEHQ, with below -0.25; and QAFTRVLTVRHRGGTSC, with below -0.25.

With ASGLVYPDGVILGLVHTQSM, the growth estimate is below -0.25. Then GNDFRGGRCRG, with below -0.25; and FLVTD, with below -0.25; and VVNLDD, with below -0.25. In the case of WCLISLPYNTRGPALYVKCR it was below -0.25.

In the case of ARLPAL, the growth estimate was below -0.25. Turning to IGSEFSNQISPEPAIKSRVM, the growth estimate is below -0.25. As for EEELIACVLSC, the growth estimate is below -0.25. Then NGRFALKNGKTS, with below -0.25. In the case of RLIYESTRLTRGAPG it was below -0.25; in that of FCGPS, below -0.25.

Turning to CPSELRIVANEPTTGVGSIA, the growth estimate is below -0.25. For EFRQLAKLLTLVQSIN, the growth estimate is below -0.25. Then REGGVHHANYTEGVLLWTTN, with -0.139.

Regarding MGSPEEALYKSVRHGGLFLP, the growth estimate was below -0.25. Then WPVFWHDREP, with below -0.25; and INRIILGYKYASPGGCRGRV, with below -0.25.

On to NEHTLLLTEVTTLPRRGVRG, for which the growth estimate is -0.246.

For GIYNLRTRVQACVPWSRHRS, the growth estimate was below -0.25. For ILIGSENFTSCEVQSALVR, the growth estimate is below -0.25. As to CDSGDTRDSL, the growth estimate was below -0.25. In the case of LPRP it was below -0.25; in that of YQERPDGFTWYGVQITCKRH, -0.246; in that of EKNGSICAKSKRSV, below -0.25. Then LGQARKRLVAVVSSISGRRQ, with below -0.25; and RIHHEDNDVLNRQCFVRAPA, with below -0.25. As to PPLVHKDSRESKSLAGYSCL, the growth estimate is below -0.25. In the case of GGLLNPFLWSK it was below -0.25. Consider WHWTEFRQ, for which the growth estimate is below -0.25. As for RGEGNESWYAE, the growth estimate was 0.16. Then ARGWSKCRAPSSAAATREGS, with below -0.25; and CVMHLYRGMLDGRRIRMYMP, with below -0.25; and TGKDTRRLNPY, with below -0.25.

With NYRLEGHENAVSKCPVITAA, the growth estimate is below -0.25.

Take DFVIKRTLVTMPGRLRRGGP: the growth estimate was below -0.25. Take CPWTRHYLSH: the growth estimate is below -0.25. In the case of SGLVCPDGGWVCRPSLSKLW it was below -0.25. For TICSFAVKTAPIALALS, the growth estimate is below -0.25. Then SCITKQAICRA, with below -0.25; and WGRVAEGDKENGLVSAS, with below -0.25; and RLFRRLVGVGSNRNPAGQRR, with below -0.25. In the case of SKTQGQEDQSKYLLWNSTHR it was below -0.25; in that of KRSRKDVFGWNTC, below -0.25; in that of SEV, -0.219. For YVNTH, the growth estimate is below -0.25. Then TLSNVCLLYCLFGPVIHITH, with below -0.25; and NRGAYPTCFICQ, with below -0.25. On to ERDSVSVYIAFGTHEKSIKY, for which the growth estimate was below -0.25. In the case of LCISGVPHLQTR it was below -0.25; in that of PMDAG, below -0.25; in that of LSGTGSIG, below -0.25. In the case of TLAPPPGSKLEFLPQTLDVP, the growth estimate was below -0.25. SAVIVPRLGLMRSVGGYYVF: the growth estimate was below -0.25. Consider TGCRPYTSPQLTYGQILAKS, for which the growth estimate is below -0.25.

For SANLIFEEGLSDWTGLHRME, the growth estimate is below -0.25. Then GPGRG, with below -0.25; and GPGCLMERCELEY, with below -0.25; and DVAL, with below -0.25. In the case of PGLASSLTVQ it was below -0.25. Then FECSEYKWLSPSVCPDVSGG, with below -0.25.

As to SASLVRVMMRSSPGIRS, the growth estimate is below -0.25. AISC: the growth estimate is below -0.25. In the case of FWSRSEYQ it was below -0.25; in that of CSTPFTAQSLARTSR, below -0.25. As for SDCATLWERNVHGSRQAKAD, the growth estimate is below -0.25. Regarding PGGTRSVQCGLYSGIGRTNG, the growth estimate is below -0.25. Then ASRSVCFPGCLSRPVLAGDD, with below -0.25; and LEVTKHNLARIERMRHCFVG, with below -0.25. In the case of AVAQERGDLGQ it was below -0.25; in that of RFSRLTTQSVGRRDQEHLLL, below -0.25; in that of SETLVILKPLGSALTPISVS, below -0.25.

For the substance GKAFQP, the growth estimate is below -0.25. As to PACDMPATSNLVCFIATVVR, the growth estimate was below -0.25. In the case of VQVNNGVCPVVHVPFITRFS it was below -0.25.

Turning to LRVSHVK, the growth estimate was below -0.25. Then DKGMLDTHLGRGCRAREMRK, with below -0.25; and TICARARAYRKGSFEPIWRR, with below -0.25. Then ENRACRHPTPCHALSIINVP, with below -0.25; and RMILHYGNDPLACVVAHLAM, with below -0.25; and GPRRGHVCVLSCCHLCPDLY, with below -0.25. Consider RTAAIF, for which the growth estimate is below -0.25. In the case of SYSHKVLLRYR it was below -0.25.

As for STLMVQINGERAASP, the growth estimate was below -0.25. Then DRTRTDGTVGILENVVKSLG, with below -0.25.

Regarding PTFLPVTECGRRALWSGDVV, the growth estimate is below -0.25. Then HWHTSRGQKSLIGRKYLR, with -0.247.

For PTSQKAKVVVEDV, the growth estimate was below -0.25. Then LCPSVTVVKGVTQTHPLLPA, with -0.229; and DQLETSSFNALF, with -0.245; and RVSPLGKVARSLCTRSARVG, with below -0.25. In the case of ISEM it was below -0.25. Consider CWRGARRMNLFTGEAFLPND, for which the growth estimate is -0.187. Consider RLTLDFIAQRWWRLAP, for which the growth estimate is below -0.25. Regarding GVSMPTVLIPP, the growth estimate was below -0.25. Then AYA, with below -0.25. In the case of ASSIPCGVI, the growth estimate was below -0.25.

As to SYICA, the growth estimate is below -0.25. As for MITTA, the growth estimate was below -0.25.

As to WYCRCA, the growth estimate was below -0.25.

With ESLL, the growth estimate was below -0.25. Then TLRGQLS, with below -0.25; and GYSGRRPKSSNAS, with below -0.25. NPSNSRVVQQSVDRDPQSLP: the growth estimate was below -0.25. For the substance ERNVIVLLRVPPGGY, the growth estimate is below -0.25. In the case of TVVLCLGNELPG it was below -0.25; in that of LEV, -0.23 ± 0.028; in that of IAGYLVSWEEPTATTTSVSM, below -0.25.
